In patent US20150183871A1:
No constants are given. Whether binding was seen depends on the method and setting. Some binding calls cover weakened binding; strength is not graded here.

How the values were obtained:
[1] = target: fc-coupled human RGM A light chain, fragment 0 (47-168) (human); experiment: competition ELISA: fc-coupled hRGM A fragment 0 (47-168, 0.5 µg/ml) binding to coated BMP-4, detection with biotin anti-human fc and streptavidin-peroxidase
[2] = target: rat RGM A overexpressed on cells (BAF3 cells) (rat); experiment: FACS on BAF3-ratRGMA stable cell line, anti-rat IgG PE
[3] = target: rat RGM A overexpressed on cells (BAF3 cells) (rat); experiment: FACS, figure legend (paragraph 377 says that only 5F9 binds)
[4] = target: fc-coupled full length human RGM A (47-422) (human); experiment: competition ELISA: fc-conjugated full length hRGM A (0.5 µg/ml) binding to coated BMP-4
[5] = target: fc-coupled full length human RGM A (47-422) (human); experiment: competition ELISA: fc-coupled full length hRGM A (0.5 µg/ml) binding to coated BMP-2, detection with biotin anti-human fc and streptavidin-peroxidase
[6] = target: rat RGM A overexpressed on cells (BAF3 cells) (rat); experiment: FACS on BAF3 cells overexpressing rat RGM A (FIG. 1C)
[7] = target: fc-coupled human RGM A light chain, fragment 0 (47-168) (human); experiment: direct ELISA on hRGMA 47-168/HuIgGFc
[8] = target: fc-coupled full length human RGM A (47-422) (human); experiment: competition ELISA: fc-conjugated full length hRGM A (0.5 µg/ml) binding to coated His-tagged Neogenin extracellular domain
[9] = target: fc-coupled full length human RGM A (47-422) (human); experiment: competition ELISA: fc-coupled full length hRGM A (0.5 µg/ml) binding to coated BMP-4, detection with biotin anti-human fc and streptavidin-peroxidase
[10] = target: fc-coupled full length human RGM A (47-422) (human); experiment: competition ELISA: fc-coupled full length hRGM A (0.5 µg/ml) binding to coated His-tagged Neogenin extracellular domain, detection with biotin anti-human fc and streptavidin-peroxidase
[11] = target: fc-coupled full length human RGM A (47-422) (human); experiment: competition ELISA: fc-conjugated full length hRGM A (0.5 µg/ml) binding to coated BMP-2

Measured: binding

B1: rat anti-human RGM A monoclonal antibody 5F9 (antibody, V domains shown)
VH: EVQLVESGGGLVQPGSSLKLSCVASGFTFSNYGMNWIRQAPKKGLEWIGMIYYDSSEKHYADSVKGRFTISRDNSKNTLYLEMNSLRSEDTAIYYCAKGTTPDYWGQGVMVTVSS
VL: DVVLTQTPVSLSVTLGDQASMSCRSSQSLEYSDGYTFLEWFLQKPGQSPQLLIYEVSNRFSGVPDRFIGSGSGTDFTLKISRVEPEDLGVYYCFQATHDPLTFGSGTKLEIKR
binds: all assays above
